These are yes or no findings as the source states them, for the method shown.

In this assay the target is cyFGFR1a-IIIc (cynomolgus monkey). Kind of assay: SPR (Biacore 4000), antibody captured, His-tagged FGFR1 injected.

B1: mAb #A08 (antibody, V domains shown)
VH: EVQLQESGPGLVKPSGTLSLTCAVSGGSISSNNWWSWVRQPPGKGLEWIGEIYHSGSTSYNPSLKSRVTISVDKSKNQFSLKLNSVTAADTAVYYCARGTDWFDPWGQGTLVTVSS
VL: QAVLTQPPSVSVAPGQTARITCGGNNIGSESVHWYQQKPGQAPVLVVYDDSDRPSGIPERFSGSNSGNTATLTISRVEAGDEADYYCQVWDSTSDHRVFGGGTKLTVL
As to B1, the binding entry is “no binding”.

(Values after patent US20190367620A1.)
